# Test results from paper PMC3210814.
# B1: SdPI Lys14Ala mutant (peptide, UniProt P0DJ45 22-80)
# chain: KNKCQLPSDVGKGAASFTRYYYNEEGGKCETFIYGGVGGNSNNFLTKEDCCRECAQGSC
# B2: recombinant SdPI peptide (scorpion-derived protease inhibitor), wild type (peptide, UniProt P0DJ45 22-80)
# chain: KNKCQLPSDVGKGKASFTRYYYNEEGGKCETFIYGGVGGNSNNFLTKEDCCRECAQGSC
# Legend:
# [1] = target: bovine pancreatic trypsin (bovine); test: enzyme inhibition assay (chromogenic substrate), Lineweaver-Burk plots and replot of the slopes; trypsin 400 nM pre-incubated with the inhibitor for 30 min; 100 mM Tris-HCl pH 8.0, 10 mM CaCl2, 25°C; substrate Nα-benzoyl-L-arginine 4-nitroanilide 0.1 to 0.8 mM; p-nitroaniline read at 405 nm for 5 min; both purified
# [2] = target: bovine pancreatic α-chymotrypsin (bovine); test: enzyme inhibition assay (chromogenic substrate), inhibition against inhibitor concentration; chymotrypsin or elastase 100 nM incubated with 0 to 40000 nM rSdPI for 30 min; as for trypsin, with the relevant chromogenic substrates; both purified
Binder,binding [1],binding [2]
B1,no binding (tested: 40 µM),
B2,,no binding (tested: 40000 nM)

# These are yes or no findings as the source states them, for the method shown.
